Values of other authors, collected in PMC9409043, “Serotonin 5-HT6 Receptor Ligands and Butyrylcholinesterase Inhibitors Displaying Antioxidant Activity—Design, Synthesis and Biological Evaluation of Multifunctional Agents against Alzheimer’s Disease” (International Journal of Molecular Sciences, 2022).

Test system: brain concentrations of malondialdehyde
Conditions: scopolamine and lipopolysaccharide models ref 46; cited from earlier work

COc1cc2c(cc1OC)C(=O)C(CC1CCN(Cc3ccccc3)CC1)C2 (stereo not shown) [Donepezil]
antioxidant activity in vivo: reducing the brain concentrations of malondialdehyde
